The text below walks through data of PubChem BioAssay AID206 (DTP/NCI, 2004).

The list shows only some results of the screen, not a fair sample: it is rich in T/C values a quarter to a half above the control, in often repeated tests (any T/C) and in doses without a T/C. Other doses and runs of a compound stand elsewhere. T/C is the treated group as % of the vehicle group. Schedule codes are those of the source, read here as Q, the interval in days (D) or hours (H), X, the number of doses. Some T/C values are followed by the survivors on the day toxicity was checked, most often the fifth; where none is given, no animal had died by that day. Some doses have a count of surviving animals in place of a T/C: the source holds a T/C of zero for them, seemingly a mark for toxic or unscored doses. Counts of survivors are from the toxicity check (mostly the fifth day) where no day follows; animals may have died later.

The assay relates to nude mice, HT29 intrarenal xenograft, tumor weight T/C. The experiment in a line: NCI In Vivo Anticancer Drug Screen. Data for tumor model HT29;CX-1 Human Adenocarcinoma (MER+) (intrarenal inoculation) in NU/NU Swiss (nude) mice. As to conditions: T/C endpoint: mean tumor weight change, higher T/C = larger tumour. In short, it runs like this: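 Mice with transplanted tumors are dosed with compound while controls get vehicle only. Survival or tumor burden is then assessed per group, and the treated value is expressed relative to control.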

The mark [1] stands for this setting: dose: 150.0 mg/kg/injection, schedule: Q04DX004 (sc), vehicle: Klucel (hydroxypropylcellulose) (HPC), evaluated on day 15.
Where [2] appears, read: dose: 8.0 mg/kg/injection, schedule: Q01DX010 (sc), vehicle: saline.
[3] abbreviates: dose: 100.0 mg/kg/injection, schedule: Q01DX010 (sc), vehicle: Klucel (hydroxypropylcellulose) (HPC).
Where [4] appears, read: dose: 200.0 mg/kg/injection, schedule: Q01DX010 (sc), vehicle: Klucel (hydroxypropylcellulose) (HPC).
Setting [5] is: dose: 400.0 mg/kg/injection, schedule: Q01DX010 (sc), vehicle: Klucel (hydroxypropylcellulose) (HPC).

On to `Nc1ccc(Cl)cc1N`, for which the survivor count (dose: 3600.0 mg/kg/injection, schedule: Q04DX004 (sc), vehicle: saline with Tween-80) was 1 of 6 on day 15.

On to `CCc1ccc(C2=C(O)C(=O)C(c3ccccc3)=C(O)C2=O)cc1`, for which the T/C under setting [1] is 138 % of control. The survivor count is 1 of 6 on day 15 (dose: 300.0 mg/kg/injection, schedule: Q04DX004 (sc), vehicle: Klucel (hydroxypropylcellulose) (HPC)) and 1 of 6 on day 15 (dose: 600.0 mg/kg/injection, schedule: Q04DX004 (sc), vehicle: Klucel (hydroxypropylcellulose) (HPC)).

Consider `O=C1C=C[C@H](O)[C@@]2(CO)O[C@@H]12`, for which the T/C (dose: 3.12 mg/kg/injection, schedule: Q04DX004 (sc), vehicle: saline with Tween-80, evaluated on day 15) was 136 % of control. Besides, where the note is “dose: 25.0 mg/kg/injection, schedule: Q04DX004 (sc), vehicle: saline with Tween-80”, the survivor count is on record as 0 of 6 on day 15.

On to `NC(=O)c1cn(C2OC(CO)C(O)C2O)c2ncnc(N)c12` (stereo not drawn), for which the survivor count reads like this: (dose: 4.0 mg/kg/injection, schedule: Q01DX010 (sc), vehicle: saline) 0 of 3 on day 11; under setting [2], 0 of 3 on day 11.

In the case of `Brc1c(NC2=NCCN2)ccc2nccnc12`, the survivor count by setting is: (dose: 800.0 mg/kg/injection, schedule: Q04DX004 (sc), vehicle: saline) 1 of 6 on day 15; (dose: 1600.0 mg/kg/injection, schedule: Q04DX004 (sc), vehicle: saline) 0 of 6 on day 15.

Take `O=C1C(NCCO)=C(N2CC2)C(=O)C(NCCO)=C1N1CC1`: the survivor count reads like this: (dose: 4.0 mg/kg/injection, schedule: Q04DX004 (sc), vehicle: saline) 3 of 6 on day 15; (dose: 6.0 mg/kg/injection, schedule: Q04DX004 (sc), vehicle: saline) 0 of 6 on day 15; (dose: 12.0 mg/kg/injection, schedule: Q04DX004 (sc), vehicle: saline) 0 of 6 on day 15.

Regarding `CNc1nc2c(N)ncnc2n1C1OC(CO)C(O)C1O` (stereo not drawn), the survivor count is reported as 3 of 5 on day 15 (dose: 50.0 mg/kg/injection, schedule: Q04DX004 (sc), vehicle: saline); 2 of 6 on day 15 (dose: 100.0 mg/kg/injection, schedule: Q04DX004 (sc), vehicle: saline); 0 of 6 on day 15 (dose: 200.0 mg/kg/injection, schedule: Q04DX004 (sc), vehicle: saline).

Take `CCC[CH2][Hg][Cl]`: the survivor count (dose: 75.0 mg/kg/injection, schedule: Q04DX004 (sc), vehicle: Klucel (hydroxypropylcellulose) (HPC)) was 0 of 6 on day 15.

For the molecule `CC(=O)Oc1c(C)[nH]ccc1=O`, where the note is “dose: 300.0 mg/kg/injection, schedule: Q04DX004 (sc), vehicle: suspension in saline, evaluated on day 15”, the T/C was 131 % of control. Further, the survivor count (dose: 2400.0 mg/kg/injection, schedule: Q04DX004 (sc), vehicle: suspension in saline) is listed as 1 of 6 on day 15.

For `ClCCCCCCCCCCc1ccccc1`, under “dose: 800.0 mg/kg/injection, schedule: Q01DX010 (sc), vehicle: Klucel (hydroxypropylcellulose) (HPC)”, the survivor count is recorded as 1 of 3 on day 11.

Consider `C/C=C1\C[C@@H]2C(OC)Nc3cc(O)c(OC)cc3C(=O)N2C1` (stereo partly drawn), for which the T/C (dose: 1.0 mg/kg/injection, schedule: Q04DX004 (sc), vehicle: saline, evaluated on day 15) is 128 % of control.

Consider `CCCCCCCCCCCCCCCCP(=O)(OCCOCCCCCC)OCCOCCCCCC`, for which, under “dose: 150.0 mg/kg/injection, schedule: Q04DX004 (sc), vehicle: saline, evaluated on day 15”, the T/C was 126 % of control.

For `CCCNC1=C(C)C(=O)C2=C(C1=O)[C@H](COC(N)=O)[C@]1(OC)[C@@H]3N[C@@H]3CN21`, the survivor count runs as follows: (dose: 24.0 mg/kg/injection, schedule: Q04DX003 (sc), vehicle: saline) 1 of 6 on day 15; (dose: 48.0 mg/kg/injection, schedule: Q04DX003 (sc), vehicle: saline) 0 of 6 on day 15.

With `COC(=O)Nc1cccc(-c2nc3ccc(NC(=O)OC)cc3c(=O)n2-c2ccccc2)c1`, the survivor count under setting [3] is recorded as 1 of 2 on day 11, the survivor count under setting [4] is 1 of 3 on day 11 and the survivor count under setting [5] was 1 of 3 on day 11.

In the case of `Cn1cnc([N+](=O)[O-])c1Sc1ncn[nH]1`, the survivor count is 3 of 6 on day 15 (dose: 400.0 mg/kg/injection, schedule: Q04DX004 (sc), vehicle: suspension in saline); 2 of 6 on day 15 (dose: 800.0 mg/kg/injection, schedule: Q04DX004 (sc), vehicle: suspension in saline); 0 of 5 on day 15 (dose: 1600.0 mg/kg/injection, schedule: Q04DX004 (sc), vehicle: suspension in saline).

Consider `CC1=C2CC(C)(C)/C=C\C(=O)/C(C)=C\C3=C[C@H](C)C[C@]3(O2)C1=O`, for which the survivor count reads like this: under setting [3], 0 of 3 on day 20; under setting [4], 0 of 3 on day 20; under setting [5], 0 of 3 on day 20.

Turning to `CCN(CC)CCNc1ccc(C)c2sc3ccccc3c(=O)c12`, the T/C (dose: 50.0 mg/kg/injection, schedule: Q01DX010 (sc), vehicle: saline, evaluated on day 20) was 142 % of control. The survivor count is listed as 1 of 3 on day 20 (dose: 200.0 mg/kg/injection, schedule: Q01DX010 (sc), vehicle: saline) and 0 of 3 on day 20 (dose: 400.0 mg/kg/injection, schedule: Q01DX010 (sc), vehicle: saline).

Turning to `COc1cccc2c1C(=O)c1c(O)c3c(c(O)c1C2=O)C[C@@](O)(C(C)=O)C[C@@H]3OC1CC(N(C)C)C(O)C(C)O1` (stereo partly drawn), the survivor count is, setting by setting: under setting [2], 0 of 3 on day 20; (dose: 16.0 mg/kg/injection, schedule: Q01DX010 (sc), vehicle: saline) 0 of 3 on day 20; (dose: 20.0 mg/kg/injection, schedule: Q04DX004 (sc), vehicle: water) 1 of 3 on day 15.

On to `Cc1c2ccncc2c(C)c2c1[nH]c1ccccc12`, for which the survivor count (dose: 50.0 mg/kg/injection, schedule: Q01DX010 (sc), vehicle: saline) was 1 of 3 on day 11 and the survivor count (dose: 100.0 mg/kg/injection, schedule: Q01DX010 (sc), vehicle: saline) is given as 1 of 3 on day 11.

For the molecule `COc1ccc([I+]c2cccc(Cl)c2)cc1Cl`, the survivor count is 0 of 6 on day 15 (dose: 1200.0 mg/kg/injection, schedule: Q04DX004 (sc), vehicle: saline with Tween-80) and 0 of 6 on day 15 (dose: 2400.0 mg/kg/injection, schedule: Q04DX004 (sc), vehicle: saline with Tween-80).

On to `O=c1nc(-c2ccco2)sc(=O)[nH]1`, for which the T/C under setting [1] is 125 % of control [5 of 6 alive on day 15]. The survivor count (dose: 1200.0 mg/kg/injection, schedule: Q04DX004 (sc), vehicle: Klucel (hydroxypropylcellulose) (HPC)) is recorded as 2 of 6 on day 15.

`O=C(CCBr)N1CCN(C(=O)CCBr)CC1`: the survivor count by setting is: (dose: 50.0 mg/kg/injection, schedule: Q01DX010 (sc), vehicle: Klucel (hydroxypropylcellulose) (HPC)) 0 of 3 on day 20; under setting [3], 0 of 3 on day 20.

For `C[n+]1c2cc(N)ccc2cc2ccc(N)cc21`, the survivor count (dose: 12.5 mg/kg/injection, schedule: Q01DX010 (sc), vehicle: saline) is on record as 0 of 3 on day 11.
